These are yes or no findings as the source states them, for the method shown. In cells and extracts the contact can be indirect. Some results given as binding are weak or reduced against the parent protein; the word gives no strength. Sequences can lack the tags named with a protein.
T1: calgranulin B-FLAG (UniProt P06702)
T1 sequence: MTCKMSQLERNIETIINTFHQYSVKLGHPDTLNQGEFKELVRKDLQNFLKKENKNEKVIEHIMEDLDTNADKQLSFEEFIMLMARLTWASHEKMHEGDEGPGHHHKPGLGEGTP

Protein sequences, listed by entry. Tags and fused reporters are not part of them.
UniProt O14576: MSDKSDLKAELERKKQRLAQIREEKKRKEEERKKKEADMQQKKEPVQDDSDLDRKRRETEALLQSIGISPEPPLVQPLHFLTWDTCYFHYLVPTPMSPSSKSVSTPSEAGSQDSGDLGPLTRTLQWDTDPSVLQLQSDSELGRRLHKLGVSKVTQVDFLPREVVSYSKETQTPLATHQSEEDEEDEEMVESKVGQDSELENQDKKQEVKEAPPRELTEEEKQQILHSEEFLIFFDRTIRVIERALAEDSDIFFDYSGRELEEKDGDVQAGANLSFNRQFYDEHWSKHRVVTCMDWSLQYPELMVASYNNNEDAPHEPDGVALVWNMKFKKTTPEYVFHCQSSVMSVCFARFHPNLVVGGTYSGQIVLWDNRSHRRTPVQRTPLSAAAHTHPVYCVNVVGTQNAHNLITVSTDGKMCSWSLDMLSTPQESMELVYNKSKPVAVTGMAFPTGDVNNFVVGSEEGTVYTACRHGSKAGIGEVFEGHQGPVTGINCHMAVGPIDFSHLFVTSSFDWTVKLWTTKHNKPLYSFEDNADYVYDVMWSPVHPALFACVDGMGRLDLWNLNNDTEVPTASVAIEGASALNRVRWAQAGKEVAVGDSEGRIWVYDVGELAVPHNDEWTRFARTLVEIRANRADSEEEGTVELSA

B1: flotillin-1 (protein, UniProt O75955 1-427)
chain: MFFTCGPNEAMVVSGFCRSPPVMVAGGRVFVLPCIQQIQRISLNTLTLNVKSEKVYTRHGVPISVTGIAQVKIQGQNKEMLAAACQMFLGKTEAEIAHIALETLEGHQRAIMAHMTVEEIYKDRQKFSEQVFKVASSDLVNMGISVVSYTLKDIHDDQDYLHSLGKARTAQVQKDARIGEAEAKRDAGIREAKAKQEKVSAQYLSEIEMAKAQRDYELKKAAYDIEVNTRRAQADLAYQLQVAKTKQQIEEQRVQVQVVERAQQVAVQEQEIARREKELEARVRKPAEAERYKLERLAEAEKSQLIMQAEAEAASVRMRGEAEAFAIGARARAEAEQMAKKAEAFQLYQEAAQLDMLLEKLPQVAEEISGPLTSANKITLVSSGSGTMGAAKVTGEVLDILTRLPESVERLTGVSISQVNHKPLRTA
B2: CD59 glycoprotein (protein, UniProt P13987 26-102)
chain: LQCYNCPNPTADCKTAVNCSSDFDACLITKAGLQVYNKCWKFEHCNFNDVTTRLRENELTYYCCKKDLCNFNEQLEN

biological target: T1, calgranulin B-FLAG; assay: co-IP; lysate of lentivirus-infected HCT-116 cells in IP buffer (150 mM NaCl, 25 mM HEPES-KOH pH 7.5, 0.5% Triton X-100, 2 mM EDTA) on anti-FLAG M2 affinity gel, 2 h at 4°C; western blot with specific antibodies

binding, binds:
dynein intermediate chain 1 (from UniProt O14576 1-645)
B1
B2
